Experimental data taken from publication PMC9418238.
No constants are given. Whether binding was seen depends on the method and setting. Binding can be weak; no strength is given. Where a sequence is shown, tags or fusion partners need not be part of it.

Amino acid sequences for entries named in this document (tags omitted). A change or cut given only in a name is not applied to a line headed by its entry.
UniProt Q7Z434: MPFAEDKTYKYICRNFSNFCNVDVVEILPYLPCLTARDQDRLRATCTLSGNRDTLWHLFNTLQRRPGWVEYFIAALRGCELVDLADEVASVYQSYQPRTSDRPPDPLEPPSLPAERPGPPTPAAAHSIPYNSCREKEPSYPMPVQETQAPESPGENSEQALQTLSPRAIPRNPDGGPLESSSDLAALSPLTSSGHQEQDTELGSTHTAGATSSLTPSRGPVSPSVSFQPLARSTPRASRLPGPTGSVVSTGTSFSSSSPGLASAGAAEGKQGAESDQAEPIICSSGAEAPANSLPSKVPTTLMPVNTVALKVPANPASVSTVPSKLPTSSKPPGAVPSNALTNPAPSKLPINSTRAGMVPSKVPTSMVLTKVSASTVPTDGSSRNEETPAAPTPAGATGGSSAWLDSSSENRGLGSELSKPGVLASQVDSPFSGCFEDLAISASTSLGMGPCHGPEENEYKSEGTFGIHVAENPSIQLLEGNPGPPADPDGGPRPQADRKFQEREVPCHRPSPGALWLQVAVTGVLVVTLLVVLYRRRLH

Target: His-MAVS recombinant protein (human) (UniProt Q7Z434)
Assay: pull-down; recombinant GST-PRMT9 and His-MAVS incubated in vitro; both purified

B1: GST-PRMT9 recombinant protein (enzyme, UniProt Q6P2P2-1 1-845)
chain: MSNSRPRSRRDAGGGAGAAGRDELVSRSLQSAEHCLGVQDFGTAYAHYLLVLSLAPELKHDVKETFQYTLFRWAEELDALSRIQDLLGCYEQALELFPDDEVICNSMGEHLFRMGFRDEAAGYFHKAVKLNPDFSDAKENFYRVANWLVERWHFIMLNDTKRNTIYNAAIQKAVCLGSKSVLDIGAGTGILSMFAKKAGAHSVYACELSKTMYELACDVVAANKMEAGIKLLHTKSLDIEIPKHIPERVSLVVTETVDAGLFGEGIVESLIHAWEHLLLQPKTKGESANCEKYGKVIPASAVIFGMAVECAEIRRHHRVGIKDIAGIHLPTNVKFQSPAYSSVDTEETIEPYTTEKMSRVPGGYLALTECFEIMTVDFNNLQELKSLATKKPDKIGIPVIKEGILDAIMVWFVLQLDDEHSLSTSPSEETCWEQAVYPVQDLADYWIKPGDHVMMEVSCQDCYLRIQSISVLGLECEMDVAKSFTQNKDLLSLGNEAELCSALANLQTSKPDAVEQTCILESTEIALLNNIPYHEGFKMAMSKVLSSLTPEKLYQTMDTHCQNEMSSGTGQSNTVQNILEPFYVLDVSEGFSVLPVIAGTLGQVKPYSSVEKDQHRIALDLISEANHFPKETLEFWLRHVEDESAMLQRPKSDKLWSIIILDVIEPSGLIQQEIMEKAAISRCLLQSGGKIFPQYVLMFGLLVESQTLLEENAVQGTERTLGLNIAPFINQFQVPIRVFLDLSSLPCIPLSKPVELLRLDLMTPYLNTSNREVKVYVCKSGRLTAIPFWYHMYLDEEIRLDTSSEASHWKQAAVVLDNPIQVEMGEELVLSIQHHKSNVSITVKQ
- binding: binds
